The target of assay [1] is PD-L1-Ig-V (UniProt Q9NZQ7). Description: phage ELISA, antigens coated at 2.5 ug/ml, OD450; BSA as control antigen.
Assay [2] addresses PD-L1-Ig-V (UniProt Q9NZQ7). Description: checkerboard phage ELISA, antigen coated at 5 to 0.625 ug/ml, antibody at 8.3 nM to 5.312e-4 nM.

Sequences of proteins named here, by UniProt entry; tags and fusion partners are left off. Residues count along the entry.
UniProt Q9NZQ7, residues 19-134: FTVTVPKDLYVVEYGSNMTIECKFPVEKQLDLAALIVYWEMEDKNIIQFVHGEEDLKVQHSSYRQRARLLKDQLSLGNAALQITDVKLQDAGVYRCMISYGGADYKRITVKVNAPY

Results are given in words; binding and its absence hold for the method and conditions named. Some entries that bind do so weakly or less than the wild type.

B1: PD-L1-Ig-V-VHH 6-21 (VHH)
VHH: DVQLQASGGGLVQAGGSLRLSCAASRMIFSTFSIQDMGWYRQAPGKQRDLVALITSDGSTNYADSVKGRFTISRDNAKSTVYLQMNNLKPEDTAVYYCAATDNVSGGRLLLNIWWMRDMWYNYWGQGTLVTVSS
For B1, the binding entry with PD-L1-Ig-V [1] and with PD-L1-Ig-V [2] was “binds” each time.

These data come from CN113045662A.
